Data as given in PubChem BioAssay AID588497 (NMMLSC, 2011).
Screen size: about 360,000 compounds; about 780 (0.22%) were called active. The shares of active, inactive and inconclusive entries below differ from those in the screen. Rule as the data show it: active = inhibition above about 35% (passing the limit was not always enough); inconclusive = no clear call, values can overlap the other calls.

tested on: Botulinum neurotoxin type F light chain protease (Clostridium botulinum); experiment: BoNT/F light chain protease inhibitors, primary screen, biochemical, flow cytometry, MLPCN library (AID 588497); details: Multiplex microsphere protease cleavage assay, at 10 µM, active compounds read high; also: plate controls were buffer without enzyme for full effect and enzyme alone for no effect

SMILES | inhibition
Cc1ccccc1OCCn1ccnc1 | inconclusive: 22.9%
CC(C)CC(=O)Nc1ncc([N+](=O)[O-])s1 | inconclusive: 59.4%
Cc1ccc(NC(=O)c2cccnc2)cc1C | inconclusive: -34.9%
Cc1cccc(N(C(=O)CCC(=O)Nc2cccnc2)C(C(=O)NC2CCCC2)c2ccncc2)c1 (stereo unspecified) | inconclusive: -15.2%
Cc1ccc(NC(=O)C2CCN(S(=O)(=O)c3ccc(F)cc3)CC2)cc1 | inactive: -3.6%
O=C(NCCCn1ccnc1)c1ccc(NS(=O)(=O)c2ccc(Cl)c(Cl)c2)cc1 | inactive: 2.1%
CN(C)C(=S)NC(=O)C12CC3(C)CC(C)(CC(C)(C3)C1)C2 | inconclusive: 10.2%
COc1ccccc1C(=O)NNS(=O)(=O)c1ccc(F)cc1 | inconclusive: 46%
COc1cc(C(=O)N2CCc3ccccc32)c([N+](=O)[O-])cc1OC | inconclusive: -23.2%
Cc1ccc(-n2nc(C(N)=O)nc2-c2ccccc2)cc1 | inconclusive: -42%
O=C(NC(=S)NCc1ccccc1)c1cccc([N+](=O)[O-])c1 | inconclusive: 22.4%
CC(=O)c1sc2nc(C)c3c(c2c1N)CCCC3 | inconclusive: 3.4%
CC1(C(=O)NS(=O)(=O)c2cccc(C#N)c2)CCN1C(=O)C1(c2ccc(Cl)cc2)CCC1 (stereo unspecified) | inactive: -2.7%
CCOc1ccc(CCNC(=O)COC(=O)c2ccco2)cc1OCC | inconclusive: -16.8%
O/N=C(\Cn1ccnc1)c1ccccc1 | inconclusive: -13.4%
C=CCn1c(O)c(C(C)=NCCCn2ccnc2)c(=O)[nH]c1=O | inconclusive: -43.9%
O=C(N/N=C/c1ccncc1)c1cccc(N/N=C/c2ccncc2)c1 | inactive: -0.9%
COc1ccc(CCNC(=O)C2CCCN2C(=O)Nc2ccc(C)cc2)cc1OC (stereo unspecified) | inconclusive: 26.8%
CC1(C)CC(=O)C2=C(C1)Nc1cc(Cl)ccc1S2 | inconclusive: -106%
CNC(=O)/C(C#N)=C1\SC(Cc2ccc(F)cc2)C(=O)N1c1ccccc1C (stereo unspecified) | inconclusive: -22.5%
COc1ccc(NC(=O)c2cc(C)nn2-c2ccccc2)cc1 | inactive: -8.9%
COCCCNC(=S)NNC(=O)c1ccc(C(C)(C)C)cc1 | inconclusive: 20.4%
C=C(C)C1CC=C(C)/C(=N/NC(=O)c2ccc(NC(=O)CC)cc2)C1 (stereo unspecified) | inactive: -8%
Cc1ccc(C)c(OCCCN2CCCC2)c1 | inactive: 0.3%
O=C(COC(=O)c1ccccn1)NCc1cccs1 | inconclusive: 4.8%
C=CCNC(=O)C(C)N1c2cccc3cccc(c23)S1(=O)=O (stereo unspecified) | inconclusive: 13.9%

Two of the compounds above, with each value named.
COc1cc(C(=O)N2CCc3ccccc32)c([N+](=O)[O-])cc1OC
  inhibition: inconclusive: -23.2%
Cc1ccc(-n2nc(C(N)=O)nc2-c2ccccc2)cc1
  inhibition: inconclusive: -42%
